Source: publication PMC5319029
No constants are given. Whether binding was seen depends on the method and setting. For some of these results: Binding can be weak; no strength is given. For some of these results: Sequences can lack the tags named with a protein. For some of these results: Binding seen in cells or lysates may run through a third protein.

Assays:
[1] = biological target: T1, AIM2 of THP-1-derived macrophages (human (endogenous in THP-1)) (UniProt O14862); assay: co-IP; THP-1-derived macrophages (PMA) infected with HCMV AD169 for 24 h; lysate precipitated with anti-AIM2 antibody and protein A/G beads, blotted with anti-pUL83 and anti-AIM2
T1 sequence: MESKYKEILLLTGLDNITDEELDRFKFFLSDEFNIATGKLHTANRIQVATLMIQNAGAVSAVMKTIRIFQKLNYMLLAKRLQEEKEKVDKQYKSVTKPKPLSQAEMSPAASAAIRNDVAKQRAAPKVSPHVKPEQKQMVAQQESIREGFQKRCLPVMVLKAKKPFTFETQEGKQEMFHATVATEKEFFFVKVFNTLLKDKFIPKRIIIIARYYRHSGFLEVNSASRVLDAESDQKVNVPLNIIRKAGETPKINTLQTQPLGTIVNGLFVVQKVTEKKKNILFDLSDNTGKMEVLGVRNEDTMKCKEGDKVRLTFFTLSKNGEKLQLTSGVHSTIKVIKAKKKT

[2] = biological target: T1, AIM2 of THP-1-derived macrophages (human (endogenous in THP-1)); assay: co-IP; THP-1-derived macrophages (PMA) infected with HCMV AD169 for 6 h or 12 h; lysate precipitated with anti-AIM2 antibody and protein A/G beads, blotted with anti-pUL83 and anti-AIM2
[3] = biological target: T2, recombinant AIM2 fused to VP16 AD (AD-AIM2) (human) (UniProt O14862); assay: co-IP; HEK293T cells co-transfected with pM-UL83 and pVP-AIM2 for 72 h; lysis in 50 mM HEPES pH 7.4, 250 mM NaCl, 0.1% NP-40, 2 mM EDTA, 10% glycerol; precipitated with anti-AIM2 antibody and protein A/G beads, blotted with anti-pUL83; IgG as negative control
T2 sequence: T1 sequence

[4] = biological target: recombinant pUL83 fused with Gal4 DNA BD (BD-pUL83) (HCMV AD169 strain); assay: two-hybrid; mammalian two-hybrid (Matchmaker Mammalian Assay Kit) in HEK293T cells co-transfected with pM-UL83 (bait), pVP-AIM2 (prey) and pG5SEAP; SEAP in the culture supernatant 72 h after transfection, chemiluminescence

## pUL83 of HCMV AD169 in infected THP-1-derived macrophages
[1]
  binding: no binding (only 24 h post infection)
[2]
  binding: binds

## recombinant pUL83 fused with Gal4 DNA BD (BD-pUL83) (HCMV AD169 strain)
[3]
  binding: binds

B1: recombinant AIM2 fused to VP16 AD (AD-AIM2) (protein, UniProt O14862 1-343)
chain: T1 sequence
[4]
  binding: binds
